System: human miRNAs
Experiment: NanoString global miRNA expression in MM.1S cells
Format: cell-based
Conditions: 0.1 or 0.2 μM, 24 hours

CC(C)[C@H](C(=O)Nc1ccc(C(=O)NO)cc1)c1ccccc1 [AR-42, (S)-N-hydroxy-4-(3-methyl-2-phenylbutanamido)benzamide]
number of miRNAs differentially expressed: 51
number of miRNAs significantly down-regulated: 29
number of miRNAs up-regulated: 22
